The list is a part of this screen's results and no random one: it gathers tests that were run many times, whatever their T/C, doses with no T/C, and many T/C values between a quarter and a half above the control. Further doses and runs are listed elsewhere. T/C: endpoint of the treated group in % of that of the vehicle group. Some doses have a count of surviving animals in place of a T/C: the source files T/C as zero there, which appears to mark a toxic dose or a test without result, not a measured value. Some doses without a T/C left all or most animals alive at the check, yet need not have been tolerated: the source hardly ever lists a survival T/C far under the control, and the zero likely stands for such cases as well. Survivors were counted at the toxicity check, usually on the fifth day, unless a day is given; later deaths do not show. Schedule codes are those of the source, taken here to give the interval after Q, in days (D) or hours (H), and the number of doses after X. Some entries were tested several times; the results are listed from low to high. Where survival is the endpoint, this PubChem deposit counts one and a half times the control or more as active, and values a quarter to a half above the control carry no call in these data; other NCI protocols may use other cut-offs. Some T/C values carry the count of animals alive at the toxicity check (mostly the fifth day); without a count, all were alive then.
Tested on: P388 leukemia ip, CD2F1 mice, survival T/C
Assay: NCI In Vivo Anticancer Drug Screen. Data for tumor model P388 Leukemia (intraperitoneal) in CD2F1 (CDF1) mice
Conditions: T/C endpoint: median survival time, higher T/C = longer survival
[1] = dose: 200.0 mg/kg/injection, schedule: Q04DX003 (ip), vehicle: Klucel (hydroxypropylcellulose) (HPC)
[2] = dose: 400.0 mg/kg/injection, schedule: Q04DX003 (ip), vehicle: Klucel (hydroxypropylcellulose) (HPC)
[3] = dose: 60.0 mg/kg/injection, schedule: Q01DX005 (ip), vehicle: Klucel (hydroxypropylcellulose) (HPC)
[4] = dose: 120.0 mg/kg/injection, schedule: Q01DX005 (ip), vehicle: Klucel (hydroxypropylcellulose) (HPC)
[5] = dose: 240.0 mg/kg/injection, schedule: Q01DX005 (ip), vehicle: Klucel (hydroxypropylcellulose) (HPC)
[6] = dose: 6.25 mg/kg/injection, schedule: Q01DX005 (ip), vehicle: saline with Tween-80
[7] = dose: 12.5 mg/kg/injection, schedule: Q01DX005 (ip), vehicle: saline with Tween-80
[8] = dose: 50.0 mg/kg/injection, schedule: Q01DX005 (ip), vehicle: saline with Tween-80
[9] = dose: 100.0 mg/kg/injection, schedule: Q01DX005 (ip), vehicle: saline with Tween-80
[10] = dose: 200.0 mg/kg/injection, schedule: Q01DX005 (ip), vehicle: saline with Tween-80

Q: Which survivor count (dose: 400.0 mg/kg/injection, schedule: Q01DX005 (ip), vehicle: saline with Tween-80) does the source give for `O/N=C/c1ccc(Cl)cc1Cl` here?
A: 1 of 6

Q: Which survivor count [1] does the source give for `CCN(CC)CCNC(=O)c1nn(-c2ccccc2)c2c1CCCc1ccccc1-2` here?
A: 2 of 6

Q: What about the survivor count [2] of the same molecule?
A: 0 of 6

Q: `O=C1OCC=C1Sc1ccccc1` was tested. Which survivor count (dose: 240.0 mg/kg/injection, schedule: Q01DX005 (ip), vehicle: saline with Tween-80) did it give?
A: 4 of 6

Q: With `O=C(C#Cc1ccccc1)c1cccnc1` as the molecule, how does the survivor count (dose: 50.0 mg/kg/injection, schedule: Q04DX003 (ip), vehicle: Klucel (hydroxypropylcellulose) (HPC)) read?
A: 0 of 6

Q: And the survivor count (dose: 100.0 mg/kg/injection, schedule: Q04DX003 (ip), vehicle: Klucel (hydroxypropylcellulose) (HPC))?
A: 0 of 6

Q: And the survivor count [1]?
A: 0 of 6

Q: And the survivor count [2]?
A: 0 of 6

Q: What does the source list for `COC(=O)/C=C(/Sc1nc(Cl)c(Cl)nc1N)C(=O)OC` (tested in a mixture with another compound)?
A: survivor count [3]: 2 of 6; survivor count [4]: 0 of 6; survivor count [5]: 0 of 6

Q: How did the survivor count (dose: 1.6 mg/kg/injection, schedule: Q01DX005 (ip), vehicle: saline) turn out when `[CH3][Sn]([CH3])([CH3])[N]=C=[N][Sn]([CH3])([CH3])[CH3]` was run?
A: 3 of 6

Q: What about the survivor count (dose: 3.12 mg/kg/injection, schedule: Q01DX005 (ip), vehicle: saline with Tween-80) of the same molecule?
A: 0 of 6

Q: And the survivor count [6]?
A: 0 of 6

Q: What about the survivor count [7] of the same molecule?
A: 0 of 6

Q: And the survivor count [8]?
A: 0 of 6

Q: What about the survivor count [9] of the same molecule?
A: 0 of 6

Q: And the survivor count [10]?
A: 0 of 6

Q: For `O=C1OC(c2ccccc2)(c2ccccc2)CC1CC(O)(c1ccccc1)c1ccccc1` (stereo unspecified), which survivor count [10] is on record?
A: 6 of 6

Q: Which survivor count (dose: 200.0 mg/kg/injection, schedule: Q01DX009 (ip), vehicle: other) does the source give for `COc1ccc(-c2c(N)cnc(C)c2C)c(OC)c1OC` here?
A: 1 of 6

Q: `Nc1ccc(S(=O)(=O)Nc2c(N)[nH]c(=S)[nH]c2=O)cc1` was tested. Which T/C [3] did it give?
A: 141 % of control

Q: What about the T/C [4] of the same molecule?
A: 136 % of control [4 of 6 alive]

Q: What about the survivor count [5] of the same molecule?
A: 3 of 6

Q: What does the source list for `N#CN=[N+]([O-])c1ccc(C(=O)O)cc1`?
A: T/C (dose: 30.0 mg/kg/injection, schedule: Q04DX003 (ip), vehicle: Klucel (hydroxypropylcellulose) (HPC)): 128 % of control [5 of 6 alive]; survivor count (dose: 60.0 mg/kg/injection, schedule: Q04DX003 (ip), vehicle: saline with Tween-80): 2 of 6

Q: Which results are given for `CC([OH2+])CNCCN.CC([OH2+])CNCCN.O=[N+]([O-])[O-].[Cu+2]` (stereo unspecified)?
A: survivor count (dose: 100.0 mg/kg/injection, schedule: Q01DX009 (ip), vehicle: saline): 0 of 6; survivor count (dose: 200.0 mg/kg/injection, schedule: Q01DX009 (ip), vehicle: saline): 0 of 6

Q: `CN1CCN=C1c1ccc(NC(=O)c2ccc(C(=O)Nc3ccc(C4=NCCN4C)cc3)c([N+](=O)[O-])c2)cc1` was tested. Which T/C (dose: 3.13 mg/kg/injection, schedule: Q01DX005 (ip), vehicle: saline with Tween-80) did it give?
A: 127 % of control

Q: What about the survivor count [6] of the same molecule?
A: 0 of 6 and 1 of 6

Q: What about the survivor count [7] of the same molecule?
A: 0 of 6

Q: And the survivor count (dose: 25.0 mg/kg/injection, schedule: Q01DX005 (ip), vehicle: saline with Tween-80)?
A: 0 of 6

Q: What about the survivor count [8] of the same molecule?
A: 0 of 6

Q: And the survivor count [9]?
A: 0 of 6

Q: What about the survivor count [10] of the same molecule?
A: 0 of 6

Q: Which T/C (dose: 22.5 mg/kg/injection, schedule: Q01DX009 (ip), vehicle: saline with Tween-80) does the source give for `CCCCCCCCCCCCCCCCCCOC(=O)Cc1ccc(N(CCCl)CCCl)cc1` here?
A: 127 % of control

Q: Which survivor count (dose: 50.0 mg/kg/injection, schedule: Q01DX009 (ip), vehicle: Klucel (hydroxypropylcellulose) (HPC)) does the source give for `CCn1c2ccccc2c2cc(N=Nc3ccc(O)c4ccccc34)ccc21` here?
A: 6 of 6

Reference: PubChem BioAssay AID330 (DTP/NCI, 2004)
